The values that follow come from article PMC3942315, “Structural Insights Into DNA Repair by RNase T—An Exonuclease Processing 3′ End of Structured DNA in Repair Pathways” (PLoS Biology, 2014).

What all share (assay): EMSA
In series [1] the target is T1, ExoI (exonuclease I) (Escherichia coli (JM109 or K-12)) (UniProt P04995).
T1 sequence (looked up): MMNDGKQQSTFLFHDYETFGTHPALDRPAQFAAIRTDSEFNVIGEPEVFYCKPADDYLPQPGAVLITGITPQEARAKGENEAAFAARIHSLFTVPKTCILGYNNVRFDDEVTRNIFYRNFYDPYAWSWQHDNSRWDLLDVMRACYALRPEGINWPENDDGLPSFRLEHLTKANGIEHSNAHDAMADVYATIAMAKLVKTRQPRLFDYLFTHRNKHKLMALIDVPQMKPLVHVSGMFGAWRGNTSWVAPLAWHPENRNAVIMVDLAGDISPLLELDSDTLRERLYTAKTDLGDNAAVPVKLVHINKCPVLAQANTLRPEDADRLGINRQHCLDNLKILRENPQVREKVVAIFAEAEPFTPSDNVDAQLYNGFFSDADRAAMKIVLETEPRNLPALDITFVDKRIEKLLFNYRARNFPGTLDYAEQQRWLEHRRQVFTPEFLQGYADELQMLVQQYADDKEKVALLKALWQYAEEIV
Particulars: 30 mM EDTA, 10 mM EGTA, EMSA: 20 nM DNA, 0/5/50 uM protein, 100 mM NaCl, 50 mM Tris-HCl pH 7.0, 20 min, room temperature, recombinant protein, residues 1-475, protein details: N-terminal His (pET-28a), label: 5'-32P.

The target in series [2] is T2, ExoX (exonuclease X) (Escherichia coli (JM109 or K-12)) (UniProt P0AEK0).
T2 sequence (looked up): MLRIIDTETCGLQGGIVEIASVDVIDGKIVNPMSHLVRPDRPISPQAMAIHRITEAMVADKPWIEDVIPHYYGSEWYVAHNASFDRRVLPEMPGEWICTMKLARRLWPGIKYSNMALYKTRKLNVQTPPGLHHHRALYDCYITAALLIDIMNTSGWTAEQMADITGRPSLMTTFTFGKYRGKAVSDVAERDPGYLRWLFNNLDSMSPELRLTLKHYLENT
Particulars: 30 mM EDTA, 10 mM EGTA, EMSA: 20 nM DNA, 0/5/50 uM protein, 100 mM NaCl, 50 mM Tris-HCl pH 7.0, 20 min, room temperature, recombinant protein, residues 1-220, protein details: N-terminal His (pET-28a), label: 5'-32P.

For series [3], the target named is T3, RNase T (Escherichia coli (JM109 or K-12)) (UniProt P30014).
T3 sequence (looked up): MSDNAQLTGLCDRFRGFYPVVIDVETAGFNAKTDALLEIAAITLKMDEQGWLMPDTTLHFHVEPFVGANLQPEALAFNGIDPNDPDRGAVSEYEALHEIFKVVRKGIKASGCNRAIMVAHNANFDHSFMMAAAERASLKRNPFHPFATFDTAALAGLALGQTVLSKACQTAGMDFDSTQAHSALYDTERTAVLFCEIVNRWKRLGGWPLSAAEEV
Particulars: 30 mM EDTA, 10 mM EGTA, similar affinity to duplexes, EMSA: 20 nM DNA, 0/5/50 uM protein, 100 mM NaCl, 50 mM Tris-HCl pH 7.0, 20 min, room temperature, recombinant protein, residues 1-215, protein details: N-terminal His (pET-28a), label: 5'-32P, single-stranded DNA.

For some of these results: A weaker result is weaker than the reference pair of the same experiment. Protein sequences can lack the tags named with them. The exact form of at least one protein or probe is not confirmed. At least one verdict rests on a figure or table, not on a statement of the authors.

For the sequence “GGCCCTCTTTAGGGCCTTAA [Stem-loop duplex DNA, 4-nt 3' overhang]”, the binding result in series [1] (folded or branched DNA) and in series [2] (folded or branched DNA) was “binds more weakly” in each case.

With “GGCCCTCTTTAGGGCCTTATAA [Stem-loop duplex DNA, 6-nt 3' overhang]”, the binding result in series [1] (folded or branched DNA) and in series [2] (folded or branched DNA) was “binds more weakly” each time.

As to AATCTTACAAA [ssDNA 11mer], the binding result in series [3], in series [1] (single-stranded DNA) and in series [2] (single-stranded DNA) was “binds” each time.
